# Percent effect of library compounds

Chains of the proteins cited; added tags and fusions are not shown. Residues count along the entry.
UniProt P9WFT3, whole entry: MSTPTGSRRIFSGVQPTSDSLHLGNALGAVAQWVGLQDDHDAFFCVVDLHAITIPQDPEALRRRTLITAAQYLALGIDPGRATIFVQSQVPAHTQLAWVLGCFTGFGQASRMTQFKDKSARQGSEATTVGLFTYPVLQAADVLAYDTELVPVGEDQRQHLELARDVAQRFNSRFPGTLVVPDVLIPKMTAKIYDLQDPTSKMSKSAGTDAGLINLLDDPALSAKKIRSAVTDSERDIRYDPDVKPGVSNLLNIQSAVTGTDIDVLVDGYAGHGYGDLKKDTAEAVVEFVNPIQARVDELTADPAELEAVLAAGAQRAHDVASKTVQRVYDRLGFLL
UniProt Q4DA54, 1-478: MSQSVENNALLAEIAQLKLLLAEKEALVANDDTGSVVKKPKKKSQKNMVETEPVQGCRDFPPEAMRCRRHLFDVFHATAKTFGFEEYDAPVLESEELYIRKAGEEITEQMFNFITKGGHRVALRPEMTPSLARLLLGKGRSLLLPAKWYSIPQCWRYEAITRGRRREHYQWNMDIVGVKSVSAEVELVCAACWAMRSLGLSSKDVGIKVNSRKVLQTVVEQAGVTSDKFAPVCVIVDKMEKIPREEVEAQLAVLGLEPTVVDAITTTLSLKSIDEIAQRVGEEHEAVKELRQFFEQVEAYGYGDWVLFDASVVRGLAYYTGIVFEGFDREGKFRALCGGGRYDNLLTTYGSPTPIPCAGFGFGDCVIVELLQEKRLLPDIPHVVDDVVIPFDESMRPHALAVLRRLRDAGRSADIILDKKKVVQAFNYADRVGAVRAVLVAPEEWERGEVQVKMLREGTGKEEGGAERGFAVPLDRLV
UniProt Q8IDJ8, 1-583: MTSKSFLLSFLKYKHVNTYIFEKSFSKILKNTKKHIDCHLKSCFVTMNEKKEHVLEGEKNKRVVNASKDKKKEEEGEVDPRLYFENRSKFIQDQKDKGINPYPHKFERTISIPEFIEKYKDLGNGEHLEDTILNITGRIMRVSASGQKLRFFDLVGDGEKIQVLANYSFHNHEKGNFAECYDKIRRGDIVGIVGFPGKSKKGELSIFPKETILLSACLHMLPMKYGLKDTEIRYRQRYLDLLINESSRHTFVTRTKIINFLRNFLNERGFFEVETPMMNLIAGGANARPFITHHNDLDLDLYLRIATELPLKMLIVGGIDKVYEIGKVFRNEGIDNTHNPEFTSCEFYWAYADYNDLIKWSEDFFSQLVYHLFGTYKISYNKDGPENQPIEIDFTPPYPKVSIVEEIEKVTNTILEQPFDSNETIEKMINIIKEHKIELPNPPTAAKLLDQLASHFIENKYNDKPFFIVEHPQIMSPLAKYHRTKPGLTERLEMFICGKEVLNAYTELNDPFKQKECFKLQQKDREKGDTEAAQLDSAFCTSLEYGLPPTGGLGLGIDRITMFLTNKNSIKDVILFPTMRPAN
UniProt P9WNZ1, whole entry: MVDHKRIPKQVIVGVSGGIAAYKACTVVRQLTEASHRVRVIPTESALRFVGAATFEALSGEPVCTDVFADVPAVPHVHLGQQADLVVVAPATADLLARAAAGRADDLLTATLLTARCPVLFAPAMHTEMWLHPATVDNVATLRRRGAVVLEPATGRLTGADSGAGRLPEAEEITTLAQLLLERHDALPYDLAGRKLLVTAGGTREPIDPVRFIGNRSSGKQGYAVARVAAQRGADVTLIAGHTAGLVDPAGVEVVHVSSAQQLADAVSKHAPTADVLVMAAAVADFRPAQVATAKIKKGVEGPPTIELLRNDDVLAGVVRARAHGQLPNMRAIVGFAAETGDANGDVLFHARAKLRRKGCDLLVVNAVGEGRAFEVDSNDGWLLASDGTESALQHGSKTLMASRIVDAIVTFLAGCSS
UniProt I6X8D2, whole entry: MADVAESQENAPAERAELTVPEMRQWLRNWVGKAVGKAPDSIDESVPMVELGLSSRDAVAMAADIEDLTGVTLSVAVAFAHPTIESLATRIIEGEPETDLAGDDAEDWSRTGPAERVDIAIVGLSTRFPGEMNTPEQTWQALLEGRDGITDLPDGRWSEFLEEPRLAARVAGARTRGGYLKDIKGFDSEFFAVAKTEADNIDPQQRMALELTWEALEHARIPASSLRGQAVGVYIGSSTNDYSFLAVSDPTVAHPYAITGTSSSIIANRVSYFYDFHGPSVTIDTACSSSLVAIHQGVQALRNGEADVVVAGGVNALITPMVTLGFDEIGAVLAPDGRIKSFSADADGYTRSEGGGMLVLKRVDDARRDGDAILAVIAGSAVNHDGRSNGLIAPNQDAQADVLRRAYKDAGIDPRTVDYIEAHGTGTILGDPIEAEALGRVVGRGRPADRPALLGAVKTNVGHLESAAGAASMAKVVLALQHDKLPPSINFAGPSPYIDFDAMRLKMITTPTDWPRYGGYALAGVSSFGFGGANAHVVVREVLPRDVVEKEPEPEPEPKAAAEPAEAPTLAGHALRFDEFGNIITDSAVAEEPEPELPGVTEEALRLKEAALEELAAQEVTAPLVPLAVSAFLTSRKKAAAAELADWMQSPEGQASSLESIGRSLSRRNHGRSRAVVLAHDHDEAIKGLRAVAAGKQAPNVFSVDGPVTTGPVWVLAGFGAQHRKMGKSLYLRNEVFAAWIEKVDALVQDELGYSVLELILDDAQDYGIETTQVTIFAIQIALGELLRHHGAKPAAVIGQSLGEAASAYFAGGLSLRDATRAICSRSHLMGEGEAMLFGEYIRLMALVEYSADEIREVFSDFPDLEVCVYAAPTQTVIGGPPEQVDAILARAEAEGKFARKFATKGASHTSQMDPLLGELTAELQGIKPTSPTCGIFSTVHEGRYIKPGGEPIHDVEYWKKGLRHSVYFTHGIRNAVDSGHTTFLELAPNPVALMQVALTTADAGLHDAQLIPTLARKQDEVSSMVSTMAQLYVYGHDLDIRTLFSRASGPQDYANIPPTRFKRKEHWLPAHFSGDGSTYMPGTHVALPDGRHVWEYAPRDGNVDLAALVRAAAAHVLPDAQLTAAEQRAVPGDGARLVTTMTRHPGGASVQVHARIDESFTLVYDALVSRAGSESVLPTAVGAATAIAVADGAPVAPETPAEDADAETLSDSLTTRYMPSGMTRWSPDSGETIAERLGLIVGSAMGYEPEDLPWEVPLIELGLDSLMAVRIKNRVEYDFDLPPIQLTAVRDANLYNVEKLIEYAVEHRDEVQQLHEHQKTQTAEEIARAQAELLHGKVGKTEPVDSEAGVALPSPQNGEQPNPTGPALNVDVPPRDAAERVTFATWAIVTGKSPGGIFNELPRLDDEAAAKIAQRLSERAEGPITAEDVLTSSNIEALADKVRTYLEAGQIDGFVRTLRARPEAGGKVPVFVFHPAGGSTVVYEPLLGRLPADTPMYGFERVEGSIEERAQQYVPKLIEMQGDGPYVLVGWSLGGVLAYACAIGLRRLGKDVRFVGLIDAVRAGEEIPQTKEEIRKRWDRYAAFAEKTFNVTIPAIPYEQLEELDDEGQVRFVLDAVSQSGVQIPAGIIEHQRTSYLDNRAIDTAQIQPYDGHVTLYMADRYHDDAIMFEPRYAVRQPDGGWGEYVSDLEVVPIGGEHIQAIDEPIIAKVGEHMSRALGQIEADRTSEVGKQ

Measurements from “University of Dundee, Small-Polar-MMV Screening Library” (2021), ChEMBL document CHEMBL3988442.

A: 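Tryptophan-tRNA ligase, Mycobacterium tuberculosis (UniProt P9WFT3). Enzyme assay of tryptophanyl-tRNA synthetase; the read-out is not stated. Compounds at 10 µM. Direction is not recorded; retested compounds ran higher, which suggests that high means inhibition. Of about 65,000 compounds tested this way, about 64 (0.098%) reached 50% or more in at least one test.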
B: 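Histidine-tRNA ligase, Trypanosoma cruzi CL Brener (UniProt Q4DA54). Enzyme assay of histidyl-tRNA synthetase; the read-out is not stated. Compounds at 30 µM. Higher reads as stronger inhibition (inferred: compounds with an IC50 in retests scored well above the rest). Of about 69,000 compounds tested this way, about 31 (0.045%) reached 50% or more in at least one test.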
C: 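Enzyme assay of the cytosolic lysyl-tRNA synthetase in 384-well plates, read by luminescence. Target: Lysine-tRNA ligase, Plasmodium falciparum 3D7 (UniProt Q8IDJ8). Compounds at 30 µM. Higher reads as stronger inhibition, judged from the few compounds that gave an IC50. Size under these conditions: about 69,000 compounds, about 49 of them at 50% or above in at least one test.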
D: 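Enzyme assay of CoaBC with a phosphate dye (Biomol Green) read at 650 nm. Target: Coenzyme A biosynthesis protein CoaBC, Mycobacterium tuberculosis (UniProt P9WNZ1). Concentration: 30 µM. Higher reads as stronger inhibition, judged from the few compounds that gave an IC50. Most strong results did not repeat in a second test. Of about 67,000 compounds tested this way, about 40 (0.06%) reached 50% or more in at least one test.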
E: 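Enzyme assay of the thioesterase domain of polyketide synthase 13; the read-out is not stated. Target: Polyketide synthase Pks13, Mycobacterium tuberculosis (UniProt I6X8D2). Tested at 30 µM. The record gives no direction; the compounds picked for IC50 retests had high values, so higher reads as stronger inhibition. Size under these conditions: about 67,000 compounds, about 300 of them at 50% or above in at least one test.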
F: 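Cell assay of Leishmania donovani living inside macrophages; the read-out is not stated. Compounds at 30 µM. Direction is inferred from retests: higher values go with stronger inhibition. Size under these conditions: about 69,000 compounds, about 1,000 of them at 50% or above in at least one test.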

Values are the deposited “Percent Effect”, in %.
The controls that fix the scale are not given in the record; negative values are as filed.
Compounds were drawn at random from those tested, without regard to their results.
Two or more numbers in one place are separate tests of the same structure; such repeats can differ widely.
A dash means the value is not listed here; it may have been measured.

SMILES,A,B,C,D,E,F
Cc1c2ncn(CC(=O)N(C)C)c(=O)c2nn1C,1.487,7.937,5.535,4.073,-7.358,6.99
Cc1nsc(N2CCCN(C(=O)NCc3cccnc3)CC2)n1,3.374,3.191,2.06,9.761,-22.11,27.41
Cc1ncccc1-c1cc2cccnc2n1CCCNC(=O)C1CC1.Cl,-,-,-,-,-,37.73
COc1ncccc1CN1CCC2(CC1)COCCN2C.O=C(O)C(F)(F)F.O=C(O)C(F)(F)F,-,-,-,-,-,11.29
Cc1cccc2cc(C(=O)N3CCN(S(=O)(=O)N(C)C)CC3)n(C)c12,0.4036,0,4.354,5.04,-10.13,-11.43
COCCNC(=O)[C@H]1C[C@@H]2CCN(c3ccncn3)C[C@H]2O1,0.266,5.714,-0.6133,-6.042,-14.2,-
Cc1nccnc1N1Cc2cnc(CC(C)C)nc2C1,-1.881,5.797,4.469,1.615,1.558,9.374
O=C(c1sccc1-n1cnnn1)N1CCC(Cc2ccccc2)CC1,-4.025,8.287,5.345,-12.95,-19.33,-1.092
[H][C@@]12COC[C@]1(C(=O)NC1CC(F)(F)C1)CN(Cc1ccsc1)C2,-,-,-,-,-,55.66
CNC(=O)c1cn[nH]c1C1CCN(Cc2sccc2C)C1 (stereo not given),-5.176,2.281,-0.4558,-0.618,5.395,33.52
COC(=O)CCc1c(C)nc2cc(O)nn2c1C,-2.798,3.053,6.388,3.855,1.95,36.04
CN(C)C(=O)COCc1cncc2c1CCN(C1CCOCC1)C2,-,2.222,5.785,6.829,-3.93,-
CCN1CCCC(c2c(-c3ccccc3)ncn2CCCO)C1 (stereo not given),-2.478,0.5291,12.39,-11.41,-4.736,4.396
COc1ccc2c(c1)NC(C1CCN(C(=O)C(C)C)CC1)NS2(=O)=O (stereo not given),-0.1447,10.08,2.832,0.3681,5.471,3.757
O=C(O)C(F)(F)F.[H][C@@]12CCN(c3nnc(C)s3)C[C@]1([H])O[C@H](C(=O)N1CCCC1)C2,-,-,-,-,-,17.9
O=C1CC[C@H]2[C@H](CCN2S(=O)(=O)C2CC2)N1CCN1CCCC1,-,3.315,0.7585,-2.228,-0.7178,-
CC(C)N(C)Cc1cnc2n1CCN(Cc1ccc(F)cc1)C2.O=C(O)C(F)(F)F.O=C(O)C(F)(F)F,-,-,-,-,-,2.011
N#Cc1cn(CCN2CCc3ccccc3C2)c(=O)[nH]c1=O,5.142,3.247,3.747,3.023,-15.55,10.36
COc1cccn(Cc2nnc(-c3cccnc3)o2)c1=O,3.15,5.051,4.596,4.348,-6.496,35.25
N#Cc1ccc(NCC(=O)Nc2ncn(Cc3cccnc3)n2)cc1,-2.397,3.797,0.6889,3.846,0.3652,-2.513
O=C1[C@@H]2CN(C3CCOCC3)C[C@H]2CCN1CC1CC1,0.5659,0,1.95,2.799,-20.12,-
CCN(C(=O)c1ccc2nnc(C3CCN(S(C)(=O)=O)C3)n2c1)C(C)C (stereo not given),0.5724,-20.62,3.727,1.724,-,-1.399
CCOc1ccc(Cl)c(C(=O)N(C)C)n1,-3.489,2.29,-3.728,7.513,-1.404,4.855
CC(C)(O)CNc1ccc(C#N)c(C(F)(F)F)c1,-8.5,5.263,0.3156,3.187,-16.62,100.1
COc1ccc(OC)c(C2CCN(Cc3nc(C)n4ccccc34)C2)c1 (stereo not given),1.253,12.4,-2.238,10.09,-27.69,33.26
Cc1cnc(C)c(N2CCC3(CCCN(C4CCOCC4)C3=O)C2)n1 (stereo not given),0.6478,5.025,4.532,5.654,6.277,-0.1247
CCc1csc(NC(=O)NCc2ccccn2)n1,1.874,10.1,6.074,-1.297,19.83,5.845
Cn1cccc1C(=O)N1CCc2ncnc(N3CCCC3)c2CC1,4.405,3.825,-2.085,-0.2591,-40,20.28
COCCN1CCC12CCN(C(=O)c1ccc(C)nc1)C2 (stereo not given),-,5.528,2.778,2.847,-11.42,-
Cl.Fc1ccc(F)c(CN2CCC(c3cc4ncccc4cn3)CC2)c1,-,-,-,-,-,33.05
CCc1noc(C)c1C(=O)N1C[C@H](NS(C)(=O)=O)[C@@H](C2CC2)C1,-1.407,5.102,1.344,1.373,3.163,25.32
O=C(CN1C=Nc2ccccc2S1(=O)=O)NCC1CC1,-7.366,2.312,0.9922,-2.216,-5.835,1.565
CCC[C@@H](NC(N)=O)C(=O)N1Cc2ccccc2-c2ccccc2C1,-4.335,8.021,4.42,3.913,-16.63,27.55
[H][C@]12CCN(C(=O)Nc3ccccc3C)CC[C@@]1([H])S(=O)(=O)N(CC)C2,-,-,-,-,-,3.795
[H][C@@]12COC[C@]1(COCC1CC1)CN(S(=O)(=O)c1cccnc1)C2,-,-,-,-,-,-39.77 & -1.695
CCCn1ccc2cc(NC(=O)CC3CCCO3)ccc21 (stereo not given),-3.604,0.5525,3.573,5.492,-23.19,12.53
CO[C@H]1CCN(S(=O)(=O)c2cccs2)[C@H]1Cc1ccncc1,-7.819,6.897,0.2786,4.569,-14.53,29.87
CN(C)C1COC2(CCN(S(=O)(=O)c3ccc(F)cc3)CC2)C1.O=C(O)C(F)(F)F (stereo not given),-,-,-,-,-,52.86
CSc1ccc(CNC2CCCc3c2cnn3C)cc1 (stereo not given),-1.836,8.458,3.628,9.41,-2.191,-
CCN1CCN(c2ccc(C(=O)NC(C)CCOC)cc2)CC1 (stereo not given),-3.827,3.571,3.663,-2.941,-20.03,-10.16
Cn1cc(CN2CC[C@@H](NS(C)(=O)=O)[C@@H]2Cc2cccnc2)cn1.O=C(O)C(F)(F)F.O=C(O)C(F)(F)F,-,-,-,-,-,8.171
Cc1ccsc1CNCC1CCCN1c1cccnn1 (stereo not given),-0.3139,2.959,-0.5278,5.45,17.29,29.66
CC(=O)CCC(=O)N1CCC2(CC1)N=C(CCC(C)C)NC2=O,2.812,-2.128,3.179,-6.291,-33.33,28.7
Cc1cc(C)c(-n2cccn2)c(CN2CCOCC(CN(C)C)C2)c1 (stereo not given),-2.381,15.48,1.72,6.265,0.2778,-2.301
CC1c2ncc(CN3CCN(C)CC3)n2CCN1CC1CC1.O=C(O)C(F)(F)F.O=C(O)C(F)(F)F.O=C(O)C(F)(F)F (stereo not given),-,-,-,-,-,46.09

Some entries from above, unchanged:

SMILES,A,B,C,D,E,F
CCOc1ccc(Cl)c(C(=O)N(C)C)n1,-3.489,2.29,-3.728,7.513,-1.404,4.855
CNC(=O)c1cn[nH]c1C1CCN(Cc2sccc2C)C1 (stereo not given),-5.176,2.281,-0.4558,-0.618,5.395,33.52
CCc1noc(C)c1C(=O)N1C[C@H](NS(C)(=O)=O)[C@@H](C2CC2)C1,-1.407,5.102,1.344,1.373,3.163,25.32
Cc1nccnc1N1Cc2cnc(CC(C)C)nc2C1,-1.881,5.797,4.469,1.615,1.558,9.374
O=C(CN1C=Nc2ccccc2S1(=O)=O)NCC1CC1,-7.366,2.312,0.9922,-2.216,-5.835,1.565
COc1ccc(OC)c(C2CCN(Cc3nc(C)n4ccccc34)C2)c1 (stereo not given),1.253,12.4,-2.238,10.09,-27.69,33.26